Laboratory results reported in US8518710B2, “Photon reducing agents for fluorescence assays” (Life Technologies Corporation, priority 1997, dated 2013).
For some of these results: At least one compound was matched to its structure with a doubt left. Some entries share one result that the patent states for a list of compounds.

Assays:
[1] = Front-face fluorescence and absorbance in aqueous buffer versus 50% methanol buffer (Example 2); format: physicochemical; conditions: at the emission wavelength of the coumarin
[2] = tested on: Jurkat cells; test: CCF2 beta-lactamase fluorescence readout in Jurkat cells with photon reducing agents (Example 7); format: cell-based, mammalian; conditions: 5 or 10 uM CCF2/AM; 5% v/v Schilling Red Food Dye or 0.660 mM phenol red
[3] = Absorption maxima of dyes (Table 1); format: physicochemical; conditions: second maximum printed in parentheses
[4] = Front face fluorescence of a coumarin solution with and without phenol red (Example 1); format: physicochemical; conditions: 1 mM phenol red; 0.5 μM 6-chloro-7-hydroxy coumarin-3-carboxylate; 50% methanol / 39 mM phosphate buffer pH 7.5
[5] = Coumarin fluorescence as a function of path length in capillary tubes, epifluorescence microscope (Example 6); format: physicochemical; conditions: 10 μM coumarin + 1 mM phenol red, capillary tubes of fixed path length
[6] = Residual coumarin fluorescence versus concentration of non-dye quenchers and particulates, microtiter plate (Example 3); format: physicochemical; conditions: 10 μM coumarin, phosphate buffer pH 7.5, ex 395 nm, em 460 nm

| Structure (SMILES) | decrease of absorbance by 50% methanol buffer [1] | increase of signal to noise ratio of the assay compared to absence of photon reducing agent [2] [%] | Absorption maxima of dyes, value in parentheses [3] [nm] | reduction of front face fluorescence [4] [fold] | attenuation of coumarin fluorescence [5] | concentration typically required to reduce fluorescence (collisional quenchers) [6] |
| --- | --- | --- | --- | --- | --- | --- |
| O=S1(=O)OC(c2ccc(O)cc2)(c2ccc(O)cc2)c2ccccc21 [Phenol Red] | about 20% | 200 to 300 | 423 | 70 | significantly attenuated | – |
| CC(=O)Nc1c(I)c(NC(C)=O)c(I)c(C(=O)O)c1I [diatrizoic acid] | – | – | – | – | – | higher than 100 mM |
| NCCN(CCN)CCN [tris (2-aminoethyl) amine] | – | – | – | – | – | higher than 100 mM |
